Results taken from PubChem BioAssay AID2417 (National Center for Advancing Translational Sciences (NCATS), 2010).
The campaign covered roughly 140,000 compounds. About 4,300 (3.1%) were called active. The inconclusive results got no clear call from the source; some entries with a clear call stand among them for comparison.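 How the source made its calls: active means readout at or below -70, meaning at least 70% loss of cells showing the perinucleolar compartment, a nuclear body marking cancer cells; inconclusive means readout between -30 and a set limit; inactive means the rest.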

experiment: High Content Assay for Compounds that inhibit the Assembly of the Perinucleolar Compartment; settings: PC3M PTB-GFP, PNC prevalence imaging, 16 h; at 10 µM; active compounds read low;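 further: plate controls were DMSO wells for no effect and camptothecin positive control wells for full effect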
Method in brief: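 Compounds are pinned in duplicate onto adhered PC3M cells stably expressing GFP-tagged PTB and incubated 16 h at 37 C. Cells are then fixed, nuclei stained with Hoechst, and PNC-positive cells counted.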

Compound | activity change (PNC), negative = inhibition
CCSc1nc2sc3c(c2c(=O)n1CC)CC(C)(C)OC3 | inconclusive: -50.4%
CCOC(=O)c1cccc(NC(=O)C2CCC(CNc3c(N4CCOCC4)c(=O)c3=O)CC2)c1 (centres undefined) | inconclusive: -39.5%
CCOc1ccc(-n2c(SCC(=O)Nc3cc(OC)c([N+](=O)[O-])cc3C)nc3ccccc32)cc1 | inconclusive: -43.6%
COc1ccc([N+](=O)[O-])cc1NC(=O)COC(=O)Cc1cc(OC)c(OC)c(OC)c1 | inconclusive: -46.7%
O=C(Nc1nnc(-c2ccccc2)o1)c1cc(Cl)sc1Cl | inactive: 34.5%
COC(=O)c1ccc(Nc2nnc(-c3ccc(C)c(S(=O)(=O)NCC4CCCO4)c3)c3ccccc23)cc1 (centres undefined) | inconclusive: -34%
C/C(=N\NC(=O)c1ccc(N(C)C)cc1)c1ccc(C)cc1C | inconclusive: -39.2%
COC(=O)c1ccc(COc2ccccc2/C=C(\C#N)C(=O)Nc2ccc(C)cc2)cc1 | inconclusive: -76.1%
CCOC(=O)c1cc([N+](=O)[O-])sc1NC(=O)c1ccc(S(=O)(=O)N2CC3(C)CC2CC(C)(C)C3)cc1 (centres undefined) | inconclusive: -76.7%
Cc1nn(CC(=O)Nc2ccc3c(c2)nc2n3CCOC2)c(=O)c2ccccc12 | inconclusive: -31.2%
Cc1nn(Cc2c(Cl)cccc2Cl)c(C)c1C(=O)NCc1ccc(C)n1C | inactive: 16.4%
O=C(c1c(F)cccc1F)N1CCN(c2ccccc2F)CC1 | active: -82%
CCCCCC(=O)Nc1sc(C)c(C)c1C#N | inconclusive: -48.3%
C[C@]12CC[C@@H]3c4ccc(O)cc4CC[C@H]3[C@@H]1CCC2=O | inconclusive: -30.7%
COc1ccc(C2=CC(=O)OC(C)(c3ccccc3)O2)cc1 (centres undefined) | inactive: 20.6%
Cc1ccccc1NN=Nc1nc2c([nH]1)c(=O)n(C)c(=O)n2C | inactive: 0.375%
S=C(Nc1ccc(Cl)c(Cl)c1)NC1CCCCC1 | inconclusive: -70.5%
CC1Cc2ccccc2N1C(=O)COC(=O)Cn1nnc(-c2ccccc2)n1 (centres undefined) | inactive: -18.9%
CC(C)c1onc(C(=O)NCc2ccccc2)c1[N+](=O)[O-] | inactive: 10.2%
COC(=O)c1sccc1NC(=O)c1ccc(OC)cc1 | inconclusive: -56.7%
Cc1ccsc1/C=N\NC(=O)c1n[nH]c2c1CCC2 | inconclusive: -57.5%
Cc1ccc(NC(=O)CSCC#N)cc1Cl | inconclusive: -66.2%

In the list so far, these contain two or more sulfur atoms.
Compound | activity change (PNC), negative = inhibition
CCSc1nc2sc3c(c2c(=O)n1CC)CC(C)(C)OC3 | inconclusive: -50.4%
CCOC(=O)c1cc([N+](=O)[O-])sc1NC(=O)c1ccc(S(=O)(=O)N2CC3(C)CC2CC(C)(C)C3)cc1 (centres undefined) | inconclusive: -76.7%

Additional records

Compound | activity change (PNC), negative = inhibition
C=CCn1c(CNc2ccccc2)nnc1SCC(=O)N/N=C/c1ccc(O)cc1O | inconclusive: -42.7%
Cc1nc(CCN2C(=O)c3ccccc3C2=O)cs1 | active: -111%
COc1ccc(S(=O)(=O)Cc2ccc(C(=O)NCc3cccnc3)o2)cc1 | inconclusive: -72.6%
Cc1[nH]nc2c1C(c1ccc(Cl)cc1)C(C#N)=C(N)O2 (centres undefined) | inconclusive: -45.9%
COc1cccc(CN2C(=O)CCC2(C)C(=O)NC2CCCCC2)c1 (centres undefined) | inconclusive: -72.3%
CCCCNC(=S)NC(=O)c1ccc([N+](=O)[O-])cc1 | inconclusive: -41.9%
CCC1(CC)Cc2ccccc2C(Nc2c(C)n(C)n(-c3ccccc3)c2=O)=N1 | inactive: 3.71%
COc1ccccc1N=C1SC(C(=O)Nc2ccc(F)cc2)CC(=O)N1C (centres undefined) | active: -100%
CCC[C@@H]1C[C@@]1(CCC)[C@@H](NC(=O)c1ccccc1)c1ccc(C(=O)OC)cc1 | inconclusive: -35.7%
CCN(C(=O)CN(C)Cc1c(F)cccc1Cl)c1c(N)n(Cc2ccccc2)c(=O)[nH]c1=O | inconclusive: -31.5%
CCC(=O)Oc1ccc2oc(=O)cc(C)c2c1 | inconclusive: -42.8%
COc1ccc(N2CCN(Cc3nc4scc(-c5ccccc5)c4c(=O)[nH]3)CC2)cc1 | inconclusive: -79.7%
OCCNc1nc(N2CCN(Cc3ccccc3)CC2)nc2ccccc12 | inconclusive: -31.6%
CCCS(=O)(=O)N1CCC(C(=O)NC2CCC(C)CC2)CC1 (centres undefined) | inactive: -4.66%
Cc1noc(C)c1CSc1nnc(-c2c[nH]c3ccccc23)n1-c1ccc(Cl)cc1 | inconclusive: -35.4%
Cc1ccc(S(=O)(=O)NCc2cccnc2)s1 | inactive: -1.62%
COc1ccc2[nH]c3c(N4CCN(Cc5ccc6c(c5)OCO6)CC4)ncnc3c2c1 | inactive: -21.8%
Cc1ccc(/C=C/C(=O)Nc2ccccc2C(N)=O)cc1 | inconclusive: -41.7%
CC1CN(c2nc3c(c(=O)n(C)c(=O)n3C)n2Cc2c(F)cccc2Cl)CC(C)O1 (centres undefined) | inactive: 55.2%
COc1ccc(S(=O)(=O)NCCc2ccc(F)cc2)cc1 | inconclusive: -43.9%
CN(C)c1ccc(CN(C(=O)c2ccco2)C2CCS(=O)(=O)C2)cc1 (centres undefined) | inconclusive: -38.5%
O=C1c2ccccc2C(Nc2ccc3c(c2)OCCO3)N1Cc1ccc2c(c1)OCO2 (centres undefined) | inconclusive: -51.7%
